Measured values published in paper PMC3961655, “Methyllysine Reader Plant Homeodomain (PHD) Finger Protein 20-like 1 (PHF20L1) Antagonizes DNA (Cytosine-5) Methyltransferase 1 (DNMT1) Proteasomal Degradation*” (The Journal of Biological Chemistry, 2014).
No constants are given. Whether binding was seen depends on the method and setting. Binding calls can cover weak binding; strength is not graded here. Sequences can lack the tags named with a protein.

Biological target: GST-MBT domain fusion derived from PHF20L1
Test: peptide or protein array; CADOR (chromatin-associated domain array): domains fused to GST spotted on the chip, biotin-DNMT1K142me1 peptide bound and detected on it; both purified

binding: binds
Binder: LSKPRTPRRSKSDGEAKPE (monomethyl-lysine K(me1) at Lys-142; biotin, before the first residue) [biotin-tagged DNMT1K142me1 peptide (amino acids 132-150 of DNMT1 with monomethylated Lys-142)]
